{"source": "PubChem BioAssay AID686938 (Drosophila RNAi Screening Center, 2013)", "assay": "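Looking for CRAC channel components and the factors controlling them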 (primary screen)", "cells": "Drosophila S2R+ cells", "reagent": "long dsRNA against Drosophila genes, about 0.25 µg dsRNA per well, roughly 10,000 cells", "duration": "5 days of knock-down before the calcium assay", "conditions": "thapsigargin (SERCA pump blocker) to empty calcium stores; entry signal taken 4 min after adding it", "measured": "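Duplicate raw fluo-4 intensities per well from a plate reader, at rest and four minutes after thapsigargin emptied calcium stores; entry-to-rest ratio filled for only some wells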", "scale": "calcium entry signal: higher = stronger calcium signal after store depletion; resting calcium signal: higher = higher resting calcium signal", "units": "calcium entry signal in fluorescence units; resting calcium signal in fluorescence units", "active means": "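Hit if the duplicate-averaged plate z-score for entry over resting signal is under −3; wells with weak total dye signal (Fmax z < −2) or more than 5 off-targets removed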", "meaning of the calls": "active = strongly reduced calcium entry; inactive = no strong reduction", "note": "In all, the deposit lists about 23,000 reagents; this is a random part of those with a known target gene and a result. In the full data, 75 (0.33%) got an active call. 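Raw plate signals without normalisation; calls rest on plate z-scores that were not deposited; ratio present for only 364 wells.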 A number with no mark means an inactive call. Names joined by + are all predicted targets of the reagent. Reagent sequences are not shown. The record does not give: the dose of the treatment."}
{"Gene": "dbo", "amplicon": "DRSC11339", "calcium entry signal, replicate 1": 5.19e7, "calcium entry signal, replicate 2": 6.67e7, "resting calcium signal, replicate 1": 2.31e7, "resting calcium signal, replicate 2": 2.64e7}
{"Gene": "CG14246", "amplicon": "DRSC14741", "calcium entry signal, replicate 1": 3.65e7, "calcium entry signal, replicate 2": 5.45e7, "resting calcium signal, replicate 1": 1.95e7, "resting calcium signal, replicate 2": 2.62e7}
{"Gene": "CR43670 + grp + CR43671 + 1 more", "amplicon": "DRSC03541", "calcium entry signal, replicate 1": 4.68e7, "resting calcium signal, replicate 1": 2.33e7}
{"Gene": "CG17672", "amplicon": "DRSC09230", "calcium entry signal, replicate 1": 3.44e7, "calcium entry signal, replicate 2": 3.40e7, "resting calcium signal, replicate 1": 2.07e7, "resting calcium signal, replicate 2": 1.81e7}
{"Gene": "CG17672", "amplicon": "DRSC10278", "calcium entry signal, replicate 1": 4.75e7, "calcium entry signal, replicate 2": 3.55e7, "resting calcium signal, replicate 1": 2.76e7, "resting calcium signal, replicate 2": 1.53e7}
{"Gene": "Prdm13", "amplicon": "DRSC09970", "calcium entry signal, replicate 1": 3.14e7, "calcium entry signal, replicate 2": 5.05e7, "resting calcium signal, replicate 1": 1.50e7, "resting calcium signal, replicate 2": 2.05e7}
{"Gene": "Pka-C1", "amplicon": "DRSC03399", "calcium entry signal, replicate 1": 3.96e7, "resting calcium signal, replicate 1": 1.92e7}
{"Gene": "Pka-C1", "amplicon": "DRSC23314", "calcium entry signal, replicate 1": 4.91e7, "calcium entry signal, replicate 2": 3.09e7, "resting calcium signal, replicate 1": 2.30e7, "resting calcium signal, replicate 2": 1.50e7}
{"Gene": "Indy-2 + CG33934", "amplicon": "DRSC15685", "calcium entry signal, replicate 1": 3.33e7, "calcium entry signal, replicate 2": 3.07e7, "resting calcium signal, replicate 1": 1.57e7, "resting calcium signal, replicate 2": 1.30e7}
{"Gene": "Indy-2 + CG33934", "amplicon": "DRSC15686", "calcium entry signal, replicate 1": 1.81e7, "calcium entry signal, replicate 2": 3.04e7, "resting calcium signal, replicate 1": 2.49e7, "resting calcium signal, replicate 2": 1.28e7}
{"Gene": "Listericin", "amplicon": "DRSC07334", "calcium entry signal, replicate 1": 3.33e7, "calcium entry signal, replicate 2": 1.63e7, "resting calcium signal, replicate 1": 1.59e7, "resting calcium signal, replicate 2": 8.09e6}
{"Gene": "CG14400", "amplicon": "DRSC02384", "calcium entry signal, replicate 1": 3.60e7, "calcium entry signal, replicate 2": 5.51e7, "resting calcium signal, replicate 1": 1.88e7, "resting calcium signal, replicate 2": 2.25e7}

2 entries from above, arranged by “calcium entry signal, replicate 1”, high to low:
{"Gene": "dbo", "amplicon": "DRSC11339", "calcium entry signal, replicate 1": 5.19e7, "calcium entry signal, replicate 2": 6.67e7, "resting calcium signal, replicate 1": 2.31e7, "resting calcium signal, replicate 2": 2.64e7}
{"Gene": "CG14246", "amplicon": "DRSC14741", "calcium entry signal, replicate 1": 3.65e7, "calcium entry signal, replicate 2": 5.45e7, "resting calcium signal, replicate 1": 1.95e7, "resting calcium signal, replicate 2": 2.62e7}
